Some entries share one result that the patent states for a list of compounds.
Tested on: Puccinia recondita
Assay: Control test of wheat red rust disease (sprayed young wheat seedlings)
Type: in vivo
Conditions: 125 ppm by mass spray, 13 days after inoculation

| SMILES | control value |
| --- | --- |
| CCc1ccc(Oc2nnc(C)cc2C(=O)NN(Cc2ccc(C)cc2C)C(=O)OC)cc1 [b-51] | at least 75% |
| COC(=O)N(Cc1ccc(C)cc1C)NC(=O)c1cc(C)nnc1Oc1ccc(C)c(Br)c1 [b-62] | at least 75% |

From patent US20260198493A1, “HYDRAZIDE COMPOUND AND AGRICULTURAL/HORTICULTURAL FUNGICIDE” (Nippon Soda Co., Ltd., priority 2022, published 2026)
